PubChem BioAssay AID602196 | INSERM | 2012
Here is one part, drawn at random, of about 23,000 reagents tested. Of all reagents, 455 (2%) got an active call. 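Active includes both protection and sensitisation; some change values fall well beyond the stated -50 to +50 range.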 Entries without a mark were called inactive. Further read-outs or replicates are left out here. Reagent sequences are not shown. The record does not give: the amount of reagent.

- Purpose: 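Genes whose knock-down alters cisplatin killing of lung cancer cells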
- Cells: human A549 lung cancer cells
- Reagents: siRNA pair against human genes
- Duration: 48 h transfection before cisplatin; time from cisplatin to read-out not stated
- Challenge: cisplatin at a dose killing half of control-siRNA cells; exact dose and duration not given
- Measurement: 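Shift in cisplatin death relative to control siRNA, from -50 (all cells die) to +50 (no cells die); siRNAs harmful on their own scored 0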
- Scale: two-siRNA summed score (-2 to +2): higher = both siRNAs protect from cisplatin killing; -2 means both sensitise
- Rule for the call: 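Each siRNA scores 0 if harmful alone by LDH or WST-1, otherwise +1 if it reduces and -1 if it increases cisplatin killing; a gene is active when both siRNAs agree (sum +2 or -2)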
- Meaning of the calls: active = both siRNAs shift cisplatin killing the same way; inactive = no consistent shift, or siRNA harmful alone

no.	gene	PubChem SID	two-siRNA summed score (-2 to +2)
1	H2BC11	SID131518839	0
2	MYOD1	SID131504857	0
3	LOC401106	SID131509691	0
4	ATG3	SID131519326	1
5	RNF220	SID131503023	0
6	CAPN14	SID131510857	0
7	ZNF818P	SID131508946	0
8	RGN	SID131519128	1
9	TBC1D13	SID131508070	0
10	ZNF654	SID131510113	0
11	CHRM4	SID131519183	1
12	P2RY2	SID131516287	0
13	CPLX1	SID131506475	0
14	TRAFD1	SID131520059	1
15	ZFPM1	SID131518709	0
16	TSPYL5	SID131512511	0
17	SAE1	SID131503446	0
18	LOC440744	SID131517413	0
19	ADAP1	SID131518960	1
20	IRGQ	SID131514681	0
21	LOC151261	SID131515407	0
22	LOC442653	SID131518061	0
23	DUX4L8	SID131521849	1
24	RPL23AP82	SID131517994	0
25	LOC442590	SID131520962	1
26	FLT1P1	SID131517092	0
27	OR5H2	SID131502286	-1
28	SERTAD4	SID131500545	-1
29	SLC9A9	SID131501104	-1
30	PRKCI	SID131506142	0
31	RPAIN	SID131517395	0
32	LOC440859	SID131518611	0
33	TUT1	SID131502491	-1
34	LOC441134	SID131505599	0
35	SFXN1	SID131507802	0
36	DNAH9	SID131503587	0
37	HDGF	SID131519337	1
38	LOC389331	SID131519880	1
39	LOC440890	SID131516488	0
